Results taken from the supplement of paper PMC10849652.
The other results are listed elsewhere or left out.

Chains of the proteins cited; added tags and fusions are not shown. Lines headed by an entry give the natural chain unless they say otherwise; changes in a name come on top.
UniProt Q86UY5: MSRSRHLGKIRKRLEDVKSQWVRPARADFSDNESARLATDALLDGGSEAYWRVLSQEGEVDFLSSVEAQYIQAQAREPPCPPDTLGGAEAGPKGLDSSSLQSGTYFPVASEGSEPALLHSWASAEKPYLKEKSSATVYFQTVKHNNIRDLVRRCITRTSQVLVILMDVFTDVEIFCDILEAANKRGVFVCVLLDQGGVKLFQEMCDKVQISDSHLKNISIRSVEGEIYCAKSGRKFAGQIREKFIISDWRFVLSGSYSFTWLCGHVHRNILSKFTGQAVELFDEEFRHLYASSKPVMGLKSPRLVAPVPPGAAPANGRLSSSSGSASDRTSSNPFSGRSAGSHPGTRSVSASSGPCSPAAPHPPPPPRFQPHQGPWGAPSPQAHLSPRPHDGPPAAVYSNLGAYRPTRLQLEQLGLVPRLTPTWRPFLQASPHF
UniProt O14526: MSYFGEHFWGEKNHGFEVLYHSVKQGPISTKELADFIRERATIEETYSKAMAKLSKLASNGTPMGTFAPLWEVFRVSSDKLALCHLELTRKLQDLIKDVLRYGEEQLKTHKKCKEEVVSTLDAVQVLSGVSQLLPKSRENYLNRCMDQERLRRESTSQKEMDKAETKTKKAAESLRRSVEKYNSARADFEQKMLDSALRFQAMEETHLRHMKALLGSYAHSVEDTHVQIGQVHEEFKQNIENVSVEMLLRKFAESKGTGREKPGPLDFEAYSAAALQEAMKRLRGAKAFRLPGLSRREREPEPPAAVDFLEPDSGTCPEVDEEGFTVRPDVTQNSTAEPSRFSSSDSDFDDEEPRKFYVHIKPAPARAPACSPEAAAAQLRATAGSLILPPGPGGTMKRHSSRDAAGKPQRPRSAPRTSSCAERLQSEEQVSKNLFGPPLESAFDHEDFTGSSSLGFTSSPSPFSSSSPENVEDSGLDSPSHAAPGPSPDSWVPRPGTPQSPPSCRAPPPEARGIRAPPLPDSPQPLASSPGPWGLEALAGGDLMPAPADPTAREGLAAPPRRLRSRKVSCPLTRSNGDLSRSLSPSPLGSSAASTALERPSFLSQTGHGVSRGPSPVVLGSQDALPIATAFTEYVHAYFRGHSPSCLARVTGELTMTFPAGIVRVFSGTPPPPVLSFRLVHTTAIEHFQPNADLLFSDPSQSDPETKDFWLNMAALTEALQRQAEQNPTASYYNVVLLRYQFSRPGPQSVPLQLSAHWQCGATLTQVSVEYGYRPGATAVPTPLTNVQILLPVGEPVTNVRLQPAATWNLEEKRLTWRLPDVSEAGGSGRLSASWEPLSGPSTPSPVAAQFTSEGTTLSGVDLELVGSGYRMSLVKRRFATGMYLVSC
UniProt Q96AC1: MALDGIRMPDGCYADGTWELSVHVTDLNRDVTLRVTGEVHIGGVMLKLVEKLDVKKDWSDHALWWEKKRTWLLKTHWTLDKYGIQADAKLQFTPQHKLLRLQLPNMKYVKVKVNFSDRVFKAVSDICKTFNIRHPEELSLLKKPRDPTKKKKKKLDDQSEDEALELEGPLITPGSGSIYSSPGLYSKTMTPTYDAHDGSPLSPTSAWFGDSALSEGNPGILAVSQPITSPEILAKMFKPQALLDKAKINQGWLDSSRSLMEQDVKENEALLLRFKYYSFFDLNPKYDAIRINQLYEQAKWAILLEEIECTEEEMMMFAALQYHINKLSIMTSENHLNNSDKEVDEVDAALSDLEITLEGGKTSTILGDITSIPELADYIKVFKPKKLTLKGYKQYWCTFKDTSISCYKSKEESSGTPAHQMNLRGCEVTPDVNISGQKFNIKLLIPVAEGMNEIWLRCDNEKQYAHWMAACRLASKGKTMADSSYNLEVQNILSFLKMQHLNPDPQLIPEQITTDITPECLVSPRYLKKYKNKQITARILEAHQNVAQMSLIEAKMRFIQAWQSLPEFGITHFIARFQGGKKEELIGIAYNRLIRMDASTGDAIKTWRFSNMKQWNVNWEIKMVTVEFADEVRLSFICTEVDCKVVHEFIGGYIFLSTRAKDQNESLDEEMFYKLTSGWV
UniProt Q9H9S5: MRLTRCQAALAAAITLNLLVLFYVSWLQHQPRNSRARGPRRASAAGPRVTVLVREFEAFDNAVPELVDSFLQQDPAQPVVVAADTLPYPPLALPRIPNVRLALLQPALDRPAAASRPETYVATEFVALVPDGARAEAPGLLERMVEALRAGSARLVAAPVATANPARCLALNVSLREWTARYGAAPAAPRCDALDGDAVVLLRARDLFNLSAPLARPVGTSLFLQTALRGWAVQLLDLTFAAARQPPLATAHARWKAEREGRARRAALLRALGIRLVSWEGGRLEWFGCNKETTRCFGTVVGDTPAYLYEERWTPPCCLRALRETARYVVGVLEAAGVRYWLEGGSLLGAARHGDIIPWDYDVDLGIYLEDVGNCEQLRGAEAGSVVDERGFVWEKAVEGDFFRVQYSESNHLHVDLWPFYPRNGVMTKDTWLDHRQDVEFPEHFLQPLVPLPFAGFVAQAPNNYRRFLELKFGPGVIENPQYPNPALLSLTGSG
UniProt Q8TF40: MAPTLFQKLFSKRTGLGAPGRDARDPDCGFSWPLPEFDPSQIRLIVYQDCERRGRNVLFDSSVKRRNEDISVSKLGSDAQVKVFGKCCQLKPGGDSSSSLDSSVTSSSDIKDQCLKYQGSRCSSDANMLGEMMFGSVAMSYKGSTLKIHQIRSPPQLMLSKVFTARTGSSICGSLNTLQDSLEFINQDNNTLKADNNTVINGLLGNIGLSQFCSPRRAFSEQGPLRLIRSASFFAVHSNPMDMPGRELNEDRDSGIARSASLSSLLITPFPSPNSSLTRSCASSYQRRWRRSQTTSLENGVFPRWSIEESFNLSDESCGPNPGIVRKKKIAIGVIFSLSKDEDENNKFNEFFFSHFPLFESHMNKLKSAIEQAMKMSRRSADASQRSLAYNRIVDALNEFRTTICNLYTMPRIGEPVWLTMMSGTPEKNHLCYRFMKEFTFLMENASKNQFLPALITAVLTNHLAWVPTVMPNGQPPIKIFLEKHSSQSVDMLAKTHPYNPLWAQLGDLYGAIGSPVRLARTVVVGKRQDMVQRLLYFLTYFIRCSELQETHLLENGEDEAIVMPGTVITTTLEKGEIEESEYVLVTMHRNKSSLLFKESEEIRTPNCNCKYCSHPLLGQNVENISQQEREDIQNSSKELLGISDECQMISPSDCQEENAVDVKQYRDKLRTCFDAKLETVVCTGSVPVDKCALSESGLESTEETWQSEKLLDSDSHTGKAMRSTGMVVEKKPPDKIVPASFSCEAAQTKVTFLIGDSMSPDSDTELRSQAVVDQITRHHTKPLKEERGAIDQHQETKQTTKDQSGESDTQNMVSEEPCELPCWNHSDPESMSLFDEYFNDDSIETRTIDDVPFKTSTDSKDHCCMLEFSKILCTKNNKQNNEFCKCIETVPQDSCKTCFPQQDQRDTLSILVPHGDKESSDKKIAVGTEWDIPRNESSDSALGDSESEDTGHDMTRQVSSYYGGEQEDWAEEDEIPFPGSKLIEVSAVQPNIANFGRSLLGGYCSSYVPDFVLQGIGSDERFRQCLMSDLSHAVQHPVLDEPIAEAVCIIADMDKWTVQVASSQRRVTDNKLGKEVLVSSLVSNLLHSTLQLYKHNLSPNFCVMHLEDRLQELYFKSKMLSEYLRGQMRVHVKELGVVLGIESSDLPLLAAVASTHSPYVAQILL
UniProt Q9NVK5: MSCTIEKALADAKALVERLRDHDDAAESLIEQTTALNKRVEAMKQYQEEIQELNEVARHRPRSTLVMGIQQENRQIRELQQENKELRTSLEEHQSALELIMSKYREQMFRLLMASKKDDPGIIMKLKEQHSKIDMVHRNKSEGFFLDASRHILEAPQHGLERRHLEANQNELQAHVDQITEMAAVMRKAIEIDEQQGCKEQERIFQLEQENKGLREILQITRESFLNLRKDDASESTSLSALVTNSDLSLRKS
UniProt O94887: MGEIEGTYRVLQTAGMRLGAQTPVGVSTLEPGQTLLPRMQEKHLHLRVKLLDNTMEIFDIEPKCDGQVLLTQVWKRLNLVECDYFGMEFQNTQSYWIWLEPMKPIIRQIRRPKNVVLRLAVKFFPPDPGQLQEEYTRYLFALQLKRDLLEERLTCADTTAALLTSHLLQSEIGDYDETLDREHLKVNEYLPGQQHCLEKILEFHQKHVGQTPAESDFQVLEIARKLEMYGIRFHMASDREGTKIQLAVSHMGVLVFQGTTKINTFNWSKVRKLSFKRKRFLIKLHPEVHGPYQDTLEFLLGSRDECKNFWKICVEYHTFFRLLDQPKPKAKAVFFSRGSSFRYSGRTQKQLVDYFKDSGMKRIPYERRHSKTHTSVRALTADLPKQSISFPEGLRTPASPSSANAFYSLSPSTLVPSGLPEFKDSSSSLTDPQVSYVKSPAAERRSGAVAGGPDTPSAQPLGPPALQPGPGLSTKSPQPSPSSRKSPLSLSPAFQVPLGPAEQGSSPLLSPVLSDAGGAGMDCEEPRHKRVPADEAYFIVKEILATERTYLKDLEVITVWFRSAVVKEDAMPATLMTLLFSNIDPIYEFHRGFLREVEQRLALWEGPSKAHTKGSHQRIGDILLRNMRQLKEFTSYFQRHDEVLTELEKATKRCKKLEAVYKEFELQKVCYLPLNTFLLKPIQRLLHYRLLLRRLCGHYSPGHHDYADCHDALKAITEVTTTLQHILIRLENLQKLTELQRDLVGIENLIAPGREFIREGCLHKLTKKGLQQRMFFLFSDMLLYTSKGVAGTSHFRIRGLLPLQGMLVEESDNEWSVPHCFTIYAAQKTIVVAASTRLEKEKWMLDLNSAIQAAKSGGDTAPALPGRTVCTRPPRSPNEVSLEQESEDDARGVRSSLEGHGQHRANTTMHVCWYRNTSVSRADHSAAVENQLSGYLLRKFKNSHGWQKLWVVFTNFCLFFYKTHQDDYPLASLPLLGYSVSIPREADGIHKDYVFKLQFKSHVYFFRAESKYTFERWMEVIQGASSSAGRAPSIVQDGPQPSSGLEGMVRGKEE
UniProt Q8TAV0: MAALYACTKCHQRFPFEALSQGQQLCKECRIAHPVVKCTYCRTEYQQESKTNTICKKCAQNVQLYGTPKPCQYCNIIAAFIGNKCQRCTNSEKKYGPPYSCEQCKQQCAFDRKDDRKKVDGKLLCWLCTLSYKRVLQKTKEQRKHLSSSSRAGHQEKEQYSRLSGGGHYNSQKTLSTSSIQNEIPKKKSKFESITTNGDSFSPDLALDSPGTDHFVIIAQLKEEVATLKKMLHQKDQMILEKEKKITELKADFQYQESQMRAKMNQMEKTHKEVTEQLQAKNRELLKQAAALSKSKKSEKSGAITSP

How the values were obtained:
Assay in all cases: log2 fold change, soluble protein after heating vs DMSO (PISA); higher = thermal stabilisation; K562 cells, 10 uM, 30 min; active = over 0.2 and 3.5 SD of the protein, either way, in both replicates (recomputed)
[1] = compound: CC1=C2C(=CC=C1)N=C(N(C2=O)C3=CC=CC=C3C)CN4C=NC5=C(N=CN=C54)N
Summary of the method: (§1)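 K562 cells at 2×10^6 cells/mL were given 10 μM compound for 30 min. Aliquots then went through 3 min of heating across 48°C-58°C, were pooled, and were extracted in PBS with 0.5% NP-40 at 4°C, and the supernatant after 21,000xg for 90 min was quantified by TMTpro 16plex LC-MS/MS with channel sums equalised. Thermal stability relative to control samples, from duplicates, is given as log2 fold change.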

[2] = compound: Cc1sc2c(c1C)C(c1ccc(Cl)cc1)=N[C@@H](CC(=O)OC(C)(C)C)c1nnc(C)n1-2
Summary of the method: as §1

[3] = compound: CC1=C(SC2=C1C(=N[C@H](C3=NN=C(N32)C)CC(=O)N)C4=CC=C(C=C4)Cl)C
Summary of the method: as §1

[4] = compound: c1ccc([C@@H]2C[C@H]2NC2CCNCC2)cc1
Summary of the method: as §1

[5] = compound: C1=CC=C(C=C1)[C@H](COC2=CC3=C(C=C2)NC(=O)N3)NC(=O)C4=CC=CN(C4=O)CC5=CC(=C(C=C5)F)F
Summary of the method: as §1

Measured: log2 fold change

FAM83A (UniProt Q86UY5)
inactive: [1] 0.17 | [2] 0.071

FCHO1 (UniProt O14526)
inactive: [3] 0.013 | [1] 0.125 | [2] 0.022 | [4] -0.065

FERMT2 isoform 3 (UniProt Q96AC1)
inactive: [5] 0.033 | [3] -0.004 | [2] -0.042 | [4] 0.015

FMR1 (UniProt Q06787)
inactive: [3] -0.237 | [4] -0.038

Two neighbouring entries out of the list so far:
FAM83A (UniProt Q86UY5)
inactive: [1] 0.17 | [2] 0.071

FCHO1 (UniProt O14526)
inactive: [3] 0.013 | [1] 0.125 | [2] 0.022 | [4] -0.065

(list continues)

FKRP (UniProt Q9H9S5)
inactive: [5] 0.124 | [1] 0.008 | [2] -0.039

FNIP1 (UniProt Q8TF40)
inactive: [5] -0.084 | [3] 0.168 | [2] 0.05 | [4] -0.111

FBRS (UniProt J3KNZ9)
inactive: [3] 0.107 | [1] 0.053 | [4] -0.175

FGFR1OP2 isoform 2 (UniProt Q9NVK5)
inactive: [3] 0.152 | [4] 0.186

FARP2 (UniProt O94887)
inactive: [3] -0.084 | [1] 0.032 | [2] 0.12 | [4] 0.087

FAM76A isoform 3 (UniProt Q8TAV0)
inactive: [5] -0.095 | [1] -0.113 | [2] 0.081
